Data as given in PubChem BioAssay AID2685 (National Center for Advancing Translational Sciences (NCATS), 2010).
The whole screen tested about 320,000 compounds, of which about 2,100 (0.66%) were called active. The shares of active, inactive and inconclusive entries below differ from those in the screen. Calls come from the whole dose curve; as a rule, active = well fitted inhibition curve with a large enough effect in the signal ratio, with a control signal flat (not every such curve was filed as active); inconclusive = small, poorly fitted or top-dose-only effect, or effect the other way, or a change in a side signal; inactive = flat fitted curve, though single readings scatter; the % refers to the signal ratio. Where the call is inconclusive, the potency comes from a doubtful curve fit.

Test: qHTS Assay for Lipid Storage Modulators in Drosophila S3 Cells
Details: BODIPY lipid droplet fluorescence, 18-24 h, cells fed with added oleic acid; lipid storage change, negative = inhibition: at 46.1 µM (top of the series) unless noted
Outline: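 Drosophila S3 cells loaded with oleic acid (400 uM, as added) and compounds at several concentrations; lipid droplets imaged by 488-nm laser-scanning cytometry, 500–530 nm intensity and object ratio to cell channel. Percent activity normalized to 20 uM Triacsin C.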
% is set by controls: 0 for no effect and ±100 for the full control effect; potency is the fitted concentration of half-maximal effect.

Structure (SMILES)	lipid storage change, negative = inhibition	Potency	outcome
COCCN(Cc1ccccc1)C(=O)c1ccc2c(=O)n3c(nc2c1)CCC3	inconclusive		
O=C(Cc1ccc([N+](=O)[O-])cc1)N1CCN(c2ccc([N+](=O)[O-])cc2)CC1	inactive: -12.1%		
CNC(=O)c1cccnc1Nc1cccc(C(F)(F)F)c1	inconclusive: 29.4%		
O=C1NCC(CN(c2ccccc2)c2ccccc2)O1 (stereo unspecified)	inconclusive: 46.7%		
O=S(=O)(c1ccc2c(c1)N(Cc1ccc(Cl)cc1)C1CCCN21)N1CCOCC1 (stereo unspecified)	inactive: 7.79%		
COc1cc(/C=C(/NC(=O)c2ccccc2)C(=O)N2CCN(C)CC2)c([N+](=O)[O-])cc1OC		inconclusive: 0.58 µM [activator, single point]	
COc1cc(/C=C(/Sc2nnc(-c3ccc(F)cc3)o2)C(=O)O)ccc1OC(F)F	inconclusive: 60.6%		
COc1ccccc1CNC(=O)C(CC(C)C)NS(=O)(=O)c1ccc2c(c1)oc(=O)n2C (stereo unspecified)	inconclusive: 0.988%		
Fc1cccc(F)c1/C=N/Nc1ccccn1	inconclusive: -9.63%		
CCOP(=O)(OCC)c1nc(/C=C/c2ccccc2)oc1NCc1ccc(OC)cc1		inconclusive: 0.058 µM [activator, full curve, poor fit]	
CC(=O)Nc1cccc(CCc2nc3ccccc3[nH]2)c1	inconclusive: 19.1%		
Nn1c(COc2ccccc2)nnc1SCc1cc(=O)[nH]c2ccccc12	inconclusive: 23.1%		
Cc1ccccc1-c1noc(C(C)NC(=O)c2ccco2)n1 (stereo unspecified)		inconclusive: 4.11 µM [falling, single point]	
CC(=O)O[C@]1(C(C)=O)CC[C@H]2[C@@H]3C=CC4=CC(=O)C=C[C@]4(C)[C@H]3CC[C@@]21C	inconclusive: 30.7%		
Cc1nc(N2CCN(c3ccccc3)CC2)[nH]c(=O)c1CCC(C)C		inconclusive: 0.58 µM [cytotoxic, full curve]	
CCN(CC)C(=O)C1CCN(S(=O)(=O)c2ccc3c(c2)CCCN3C(=O)C2CCC2)CC1	inconclusive: 21.8%		
COCCCn1c(SCC(=O)N2CCOCC2)nc2ccccc2c1=O		inconclusive: 0.411 µM [falling, partial curve, poor fit]	
O=C1CC(C(=O)NCc2ccccc2)N=C(N2CCCCC2)N1 (stereo unspecified)	inconclusive: 7.5%		
COc1ccc(CC(=O)OCc2nnc(C3COc4ccccc4O3)o2)cc1OC (stereo unspecified)	inconclusive: 12.8%		
CC1CN(CC(O)COc2ccc(C(=O)c3ccccc3)cc2)CC(C)O1 (stereo unspecified)	inconclusive: 60.3%		
CCN(CCCCN1C(=O)c2ccccc2C1=O)c1ccc2c(c1)C(=O)N(C)C2=O	inconclusive: 15.5%		
O=C(NC1CCCN(Cc2ccc(Cl)cc2)C1)c1cnc2ccccn2c1=O (stereo unspecified)		inconclusive: 0.58 µM [activator, single point]	
COC(=O)CCc1nc2c(C#N)c(-c3ccc(Cl)cc3)ccn2n1	inconclusive: -3.31%		
O=C(Nc1ccc(Cl)cc1)Nc1nnc(-c2ccncc2)s1	inconclusive: 6.14%		
COc1ccc(OCc2nc(N)nc(Nc3ccc(C)cc3)n2)cc1	inconclusive: -14.8%		
CC1CCN(c2ccc3nnc(CCC(=O)NC(C)C)n3n2)CC1	inconclusive: -14.9%		

Structure (SMILES)	lipid storage change, negative = inhibition	Potency	outcome
C/C=C/C(=O)OCC(=O)Nc1ccccc1Br	inconclusive: 12.9%		
O=C(N/N=C\c1cn(-c2ccccc2)nc1-c1ccccc1)c1ccc(Br)o1		active: 23.1 µM	
COc1cccc(N2CCN(c3nc(C)c(C)c(=O)[nH]3)CC2)c1	inconclusive: -0.693%		
COC(=O)c1cc(NC(=O)c2ccc([N+](=O)[O-])cc2)c(=O)oc1C	inconclusive: -21.6% [at 9.22 µM]		
COc1ccccc1-c1cc(C(F)(F)F)c(C#N)c(=O)[nH]1	inconclusive: -52.4% [at 9.22 µM]		
CC1CCN(C2=C(NS(=O)(=O)c3ccc(Br)cc3)C(=O)c3ccccc3C2=O)CC1		inconclusive: 0.103 µM [falling, full curve, poor fit]	
O=C(Nc1ccccc1)Nc1ccc(Oc2ncnc3cc(Cl)ccc23)nc1	inconclusive: -16.6%		
O=C1C(Cl)=C(NCC2CCCO2)C(=O)N1c1ccccc1 (stereo unspecified)		inconclusive: 29.1 µM [falling, single point]	
COc1ccc(C=Nc2ccc3[nH]ncc3c2)c(O)c1	inconclusive: -18.2%		
CCOc1cc(-c2noc(CCCC(N)=O)n2)cc(Br)c1OC		inconclusive: 3.26 µM [activator, single point]	
O=C(Cn1c(=O)oc2cc(S(=O)(=O)N3CCCC3)ccc21)N1CCN(c2ccccc2)CC1	inconclusive: 0.375%		
CCCn1c(SCC(=O)NCc2ccco2)nc2c1c(=O)n(C)c(=O)n2C	inconclusive: 55.5%		
CCOC(=O)NNc1ccc2nonc2c1[N+](=O)[O-]		inconclusive: 29.1 µM [cytotoxic, single point]	
CCN1CCN(c2cc(C)c3cc(NC(=O)c4ccc(C)c(C)c4)ccc3n2)CC1	inconclusive: 9.38%		
COc1ccc(NC(=O)Cc2nnc(SCC(=O)c3ccc(F)cc3)n2C)cc1	inconclusive: -144%		
COCCNC(=S)N1CCN(c2cccc(C(F)(F)F)c2)CC1		inconclusive: 0.517 µM [falling, full curve, poor fit]	
CC1(C)Cc2cccc(OCC(=O)Nc3cccnc3Cl)c2O1		inconclusive: 20.6 µM [activator, single point]	
C=CCNc1nc(S(=O)Cc2ccc(C)cc2)nc2c1CCCC2 (stereo unspecified)	inconclusive: -5.41%		
O=C1C2CCCN2C(c2cccc(Br)c2)N1c1ccc(F)cc1 (stereo unspecified)	inconclusive: -3.45%		
COC(=O)CSc1nc(N2CCOCC2)c2c(c1C#N)CCCC2	inconclusive: 17.5%		
CCc1cc(/C(Cc2csc(C)n2)=N/O)c(O)cc1O	inconclusive: 147%		
COC(=O)/C(=C/c1ccccc1)NC(=O)c1ccco1	inconclusive: -5.83%		
O=C(O)CNC(=O)CCn1nnc2ccccc2c1=O	inconclusive: -34.4%		
COc1ccc2nnc(-c3ccc(C(F)(F)F)cc3)n2n1		inconclusive: 0.259 µM [activator, full curve]	
O=C(COc1ccccc1)NCCc1cn2ccsc2n1		inconclusive: 2.59 µM [activator, single point]	
O=C(CCSc1ccc(Cl)cc1)NC12CC3CC(CC(C3)C1)C2	inconclusive: -20%		

Structure (SMILES)	lipid storage change, negative = inhibition	Potency	outcome
O=C(O)c1ccc(COc2ccc([N+](=O)[O-])cc2)o1			inactive [at 46.1 µM]
O=C(OCc1nc2ccccc2s1)C1CCN(S(=O)(=O)c2cccs2)CC1	inconclusive: 56.2%		
O=C(NC1CCSC1=O)c1ccc(Oc2cccc(C(F)(F)F)c2)nc1 (stereo unspecified)	inactive: -0.249%		
Cc1cccc(C(C(=O)NC2CCCCC2)N(C(=O)c2csnn2)C2CC2)c1 (stereo unspecified)		inconclusive: 0.58 µM [activator, single point]	
Cc1ccc(C)c(Nc2c([N+](=O)[O-])ccc3nonc23)c1		inconclusive: 6.51 µM [activator, single point]	
Cn1c(SCC(=O)N2CCc3ccccc3C2)nnc1-c1cccs1	inconclusive: 21.7%		
O=C(NCc1cccs1)C1CCCN1C(=O)Nc1ccccc1[N+](=O)[O-] (stereo unspecified)		inconclusive: 23.1 µM [activator, single point]	
COc1ccccc1N1CCN(C(=O)c2cccc(C(=O)N3CCN(c4ccccc4OC)CC3)c2)CC1	inconclusive: -17.1%		
COc1ccc(C(CC(=O)O)NC(=O)c2cccs2)cc1 (stereo unspecified)	inconclusive: -65.3%		
FC(F)(F)Oc1ccc(NC(=S)Nc2ccccc2N2CCOCC2)cc1	inconclusive: 0.164%		
COc1ccccc1C(=O)NC(=O)COC(=O)c1ccc(Br)o1	inconclusive		
O=C(CSC(=S)N1CCOCC1)Nc1nc(-c2ccccc2)c(-c2ccccc2)o1		inconclusive: 8.2 µM [falling, partial curve]	
COc1c(C(O)CC(C)C)ccc2c1C(=O)OCc1cc(C)cc(O)c1O2 (stereo unspecified)	inconclusive: -16.2%		
CC(=O)NC(C)c1ccc(C(=O)CSc2nnc(C3CC3)n2C2CC2)cc1 (stereo unspecified)		inconclusive: 5.17 µM [activator, single point]	
COc1cc(OC)cc(C(=O)Nc2ccc(Nc3ccccc3)cc2)c1		inconclusive: 29.1 µM [activator, partial curve]	
c1ccc(Cn2nnc3c(N4CCCC4)ncnc32)cc1	inconclusive: -8.93%		
O=C(Nc1ccccc1)C1=C[C@@H](c2ccccc2)C[C@@H](OCc2ccc(CO)cc2)O1	inconclusive: 9.86%		
COc1ccc(-c2nnc(SCC(=O)NC3CCCCC3)n2N)cc1	inconclusive		
CCOC(=O)N1CCN(C(=O)CN(c2cccc(OC)c2)S(C)(=O)=O)CC1		inconclusive: 0.082 µM [falling, full curve, poor fit]	
CCN(CC(=O)Nc1cc(Cl)ccc1C)C(=O)COc1ccccc1F	inconclusive: -16.8%		
CCC(=O)N1CCN(c2ccccc2NC(=O)c2cccs2)CC1	inconclusive: -24.8%		
Cc1ccc2oc(C(=O)N3CCN(CC(=O)NC(C)C)CC3)c(C)c2c1		inconclusive: 11.6 µM [activator, partial curve]	
CC(C)(C)C(=O)Nc1ccc(C(=O)Nc2cccc(Oc3ccc(C(=O)O)c(C(=O)O)c3)c2)cc1		inconclusive: 9.2 µM [activator, partial curve, poor fit]	
CC12CCC(C(=O)NNC(=O)c3ccc(Br)cc3)(OC1=O)C2(C)C (stereo unspecified)		inconclusive: 20.6 µM [activator, partial curve]	

3 entries from above, sorted by formula weight, ascending.
Structure (SMILES)	lipid storage change, negative = inhibition	Potency	outcome
Cc1ccc2oc(C(=O)N3CCN(CC(=O)NC(C)C)CC3)c(C)c2c1		inconclusive: 11.6 µM [activator, partial curve]	
O=C(CSC(=S)N1CCOCC1)Nc1nc(-c2ccccc2)c(-c2ccccc2)o1		inconclusive: 8.2 µM [falling, partial curve]	
CC(C)(C)C(=O)Nc1ccc(C(=O)Nc2cccc(Oc3ccc(C(=O)O)c(C(=O)O)c3)c2)cc1		inconclusive: 9.2 µM [activator, partial curve, poor fit]	
